PubChem BioAssay AID1259405, NCATS | 2018

- Assay: 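Silenced genes that increase secreted GFP made by CHO cells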 (primary screen)
- Cell system: Chinese hamster CHO-K1 ovary cells with stable secreted eGFP expression
- Knock-down reagent: single siRNA against mouse genes, 0.8 pmol siRNA per well (2 µl of 400 nM stock)
- Timing: 3 days
- Measured: 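Per-well intracellular GFP measured by laser scanning cytometry, plus viability from ATP luminescence, each relative to plate median of non-targeting control wells, in %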
- Direction: GFP, % of control: higher = more GFP per well, higher productivity; viability (ATP), % of control: higher = more viable cells (more ATP)
- Hit rule: 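a knock-down is called active if GFP reaches 120% or more of non-targeting control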
This is one part, drawn at random, of about 50,000 reagents. About 4,000 of them (8%) were called active. 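Mouse siRNA library applied to hamster cells; one well for each siRNA.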 A number with no mark means an inactive call. Reagents against one gene are numbered here. No sequences are given here.

Target gene	siRNA no.	GFP, % of control	viability (ATP), % of control
Prl7a2	1	31.1	17.6
Prl7a2	2	87	40.6
Prl7a2	3	113	43.6
Or8w1	1	134 (active)	109
Or8w1	2	64.1	65.9
Or8w1	3	44	16.2
Esyt3	1	101	87.6
Esyt3	2	48.2	45
Esyt3	3	112	102
Snx22	1	68.6	82.4
Snx22	2	42	29.3
Snx22	3	63.9	51.9
Rbp2	1	112	101
Rbp2	2	104	108
Rbp2	3	71.2	95.8
Tdpoz3	1	122 (active)	124
Tdpoz3	2	138 (active)	82.7
Tdpoz3	3	109	76.7
Elovl3	1	74.5	78
Elovl3	2	103	92.7
Elovl3	3	115	114
Cd52	1	72.5	88
Cd52	2	117	75.7
Cd52	3	76	105
Ppat	1	77	92.2
Ppat	2	106	89.8
Ppat	3	63	98.9
Moap1	1	25.2	33
Moap1	2	73.7	67.7
Moap1	3	55.4	73.3
Podxl2	1	49.3	86.6
Podxl2	2	123 (active)	82.6
Podxl2	3	160 (active)	67.5
Clcn4	1	74.6	114
Clcn4	2	68.1	103
Clcn4	3	40.3	58.4

Active calls (from the list above):
Target gene	siRNA no.	GFP, % of control	viability (ATP), % of control
Or8w1	1	134 (active)	109
Tdpoz3	1	122 (active)	124
Tdpoz3	2	138 (active)	82.7
Podxl2	2	123 (active)	82.6
Podxl2	3	160 (active)	67.5
